No constants are given. Whether binding was seen depends on the method and setting. Binding seen in cells or lysates may run through a third protein. Some binding calls cover weakened binding; strength is not graded here. Tags and fused reporters may be left off the sequences shown.
B1: Flag-RIG-I (protein, UniProt O95786 1-925)
chain: MTTEQRRSLQAFQDYIRKTLDPTYILSYMAPWFREEEVQYIQAEKNNKGPMEAATLFLKFLLELQEEGWFRGFLDALDHAGYSGLYEAIESWDFKKIEKLEEYRLLLKRLQPEFKTRIIPTDIISDLSECLINQECEEILQICSTKGMMAGAEKLVECLLRSDKENWPKTLKLALEKERNKFSELWIVEKGIKDVETEDLEDKMETSDIQIFYQEDPECQNLSENSCPPSEVSDTNLYSPFKPRNYQLELALPAMKGKNTIICAPTGCGKTFVSLLICEHHLKKFPQGQKGKVVFFANQIPVYEQQKSVFSKYFERHGYRVTGISGATAENVPVEQIVENNDIIILTPQILVNNLKKGTIPSLSIFTLMIFDECHNTSKQHPYNMIMFNYLDQKLGGSSGPLPQVIGLTASVGVGDAKNTDEALDYICKLCASLDASVIATVKHNLEELEQVVYKPQKFFRKVESRISDKFKYIIAQLMRDTESLAKRICKDLENLSQIQNREFGTQKYEQWIVTVQKACMVFQMPDKDEESRICKALFLYTSHLRKYNDALIISEHARMKDALDYLKDFFSNVRAAGFDEIEQDLTQRFEEKLQELESVSRDPSNENPKLEDLCFILQEEYHLNPETITILFVKTRALVDALKNWIEGNPKLSFLKPGILTGRGKTNQNTGMTLPAQKCILDAFKASGDHNILIATSVADEGIDIAQCNLVILYEYVGNVIKMIQTRGRGRARGSKCFLLTSNAGVIEKEQINMYKEKMMNDSILRLQTWDEAVFREKILHIQTHEKFIRDSQEKPKPVPDKENKKLLCRKCKALACYTADVRVIEECHYTVLGDAFKECFVSRPHPKPKQFSSFEKRAKIFCARQNCSHDWGIHVKYKTFEIPVIKIESFVVEDIATGVQTLYSKWKDFHFEKIPFDPAEMSK
B2: Flag-RIG-I, O95786 1-925 (protein)
chain: B1 chain

Protein sequences, listed by entry. Tags and fused reporters are not part of them. Lines headed by an entry give the natural chain unless they say otherwise; changes in a name come on top. Chains listed by the source or under a name are the forms on record and can include a tag or linker.
GFP tagged RTN3 (human (cDNA from HEK293T)) (O95197, form named): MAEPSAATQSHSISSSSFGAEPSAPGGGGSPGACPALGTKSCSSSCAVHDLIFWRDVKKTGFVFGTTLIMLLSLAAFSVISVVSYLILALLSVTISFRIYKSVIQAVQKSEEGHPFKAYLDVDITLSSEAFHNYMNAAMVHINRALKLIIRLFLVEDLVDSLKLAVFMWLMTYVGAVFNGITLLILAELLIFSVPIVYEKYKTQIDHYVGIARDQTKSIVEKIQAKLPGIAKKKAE

Columns and labels:
[1] = molecular target: GFP tagged RTN3 (human (cDNA from HEK293T)) (UniProt O95197); assay: co-IP
[2] = molecular target: GFP tagged TRIM25 (human (cDNA from HEK293T)), Q14258; assay: co-IP; settings: remark: other sources report otherwise

Row | Binder | binding [1] | binding [2]
1 | B1 | binds | 
2 | B2 |  | binds

— doi:10.1101/2020.12.01.407320
